Test results as given in PMC7520452.
No constants are given. Whether binding was seen depends on the method and setting. In cells and extracts the contact can be indirect. Sequences can lack the tags named with a protein.

Molecular target: Myc–CUL4
Assay: co-IP; 293T cells co-transfected with FLAG–Borealin and HA- or Myc-tagged partner, 10 µM MG132 for 5 h; extracts immunoprecipitated with polyclonal antibody against HA or Myc, immunoblotting

B1: FLAG-tagged wild-type (WT) borealin (protein, UniProt Q53HL2 1-280)
chain: MAPRKGSSRVAKTNSLRRRKLASFLKDFDREVEIRIKQIESDRQNLLKEVDNLYNIEILRLPKALREMNWLDYFALGGNKQALEEAATADLDITEINKLTAEAIQTPLKSAKTRKVIQVDEMIVEEEEEEENERKNLQTARVKRCPPSKKRTQSIQGKGKGKRSSRANTVTPAVGRLEVSMVKPTPGLTPRFDSRVFKTPGLRTPAAGERIYNISGNGSPLADSKEIFLTVPVGGGESLRLLASDLQRHSIAQLDPEALGNIKKLSNRLAQICSSIRTHK
binding: no binding
